Paper PMC9889334

System: PaCgi121 + PaBud32 + PaKae1 + PaPcc1-His6
Assay: fluorescence anisotropy
Conditions: CBKP1 complex, 3 mM Mg2+, n=4; 20 mM Tris-HCl pH 8, 150 mM KCl, 3 mM MgCl2, 1% glycerol, 1 nM labelled tRNA (10 nM in Suppl. Fig. 7C), 20 °C, 15 min; recombinant protein; protein details: His6; label: 3' fluorescein

**Q.** “GGGCCGGUAGCUCAGCCUGGUCAGAGCACCGGGCUUUUAACCCGGUGGUCGCGGGUUCAAAUCCCGCCCGGCCCGCCA [Pa_tRNALys (UUU)]” was tested. Which Kd did it give?
**A.** 13 nM

For at least one entry, the source does not settle the construct or the ends of the probe.
